Shown are results outside the selection of targets with a hit, which stands elsewhere. This is a noisy data set. Only a part is listed here, and it is no random draw.
compound: COC(=O)/C=C/c1ccccc1 [methyl cinnamate]; assay: log2 ratio of iodoacetamide-alkyne labeling of the cysteine site, DMSO over compound (competition); higher = stronger covalent engagement of the cysteine by the compound, active = 1 or more; conditions: 500 µM; treatment time 1 h; system: HEK293T cell lysate
Summary of the method: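 The log2 competition ratio per cysteine is defined as mean reporter intensity in control channels over mean reporter intensity in compound channels. Lysate from HEK293T cells (2 mg/mL) received electrophile (500 µM) or vehicle for 1 h at ambient temperature, followed by iodoacetamide alkyne for 1 h. Samples were clicked to sCIP-TMT reagents, pooled, trypsin-digested overnight at 37 °C, streptavidin-enriched, acid-eluted and run on Orbitrap Eclipse LC-MS/MS with FAIMS, with quantification in FragPipe. Three replicates with duplicate channels were used, and any cysteine quantified in only one replicate was excluded.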

Amino acid sequences for entries named in this document (tags omitted). A change or cut given only in a name is not applied to a line headed by its entry.
UniProt P52701: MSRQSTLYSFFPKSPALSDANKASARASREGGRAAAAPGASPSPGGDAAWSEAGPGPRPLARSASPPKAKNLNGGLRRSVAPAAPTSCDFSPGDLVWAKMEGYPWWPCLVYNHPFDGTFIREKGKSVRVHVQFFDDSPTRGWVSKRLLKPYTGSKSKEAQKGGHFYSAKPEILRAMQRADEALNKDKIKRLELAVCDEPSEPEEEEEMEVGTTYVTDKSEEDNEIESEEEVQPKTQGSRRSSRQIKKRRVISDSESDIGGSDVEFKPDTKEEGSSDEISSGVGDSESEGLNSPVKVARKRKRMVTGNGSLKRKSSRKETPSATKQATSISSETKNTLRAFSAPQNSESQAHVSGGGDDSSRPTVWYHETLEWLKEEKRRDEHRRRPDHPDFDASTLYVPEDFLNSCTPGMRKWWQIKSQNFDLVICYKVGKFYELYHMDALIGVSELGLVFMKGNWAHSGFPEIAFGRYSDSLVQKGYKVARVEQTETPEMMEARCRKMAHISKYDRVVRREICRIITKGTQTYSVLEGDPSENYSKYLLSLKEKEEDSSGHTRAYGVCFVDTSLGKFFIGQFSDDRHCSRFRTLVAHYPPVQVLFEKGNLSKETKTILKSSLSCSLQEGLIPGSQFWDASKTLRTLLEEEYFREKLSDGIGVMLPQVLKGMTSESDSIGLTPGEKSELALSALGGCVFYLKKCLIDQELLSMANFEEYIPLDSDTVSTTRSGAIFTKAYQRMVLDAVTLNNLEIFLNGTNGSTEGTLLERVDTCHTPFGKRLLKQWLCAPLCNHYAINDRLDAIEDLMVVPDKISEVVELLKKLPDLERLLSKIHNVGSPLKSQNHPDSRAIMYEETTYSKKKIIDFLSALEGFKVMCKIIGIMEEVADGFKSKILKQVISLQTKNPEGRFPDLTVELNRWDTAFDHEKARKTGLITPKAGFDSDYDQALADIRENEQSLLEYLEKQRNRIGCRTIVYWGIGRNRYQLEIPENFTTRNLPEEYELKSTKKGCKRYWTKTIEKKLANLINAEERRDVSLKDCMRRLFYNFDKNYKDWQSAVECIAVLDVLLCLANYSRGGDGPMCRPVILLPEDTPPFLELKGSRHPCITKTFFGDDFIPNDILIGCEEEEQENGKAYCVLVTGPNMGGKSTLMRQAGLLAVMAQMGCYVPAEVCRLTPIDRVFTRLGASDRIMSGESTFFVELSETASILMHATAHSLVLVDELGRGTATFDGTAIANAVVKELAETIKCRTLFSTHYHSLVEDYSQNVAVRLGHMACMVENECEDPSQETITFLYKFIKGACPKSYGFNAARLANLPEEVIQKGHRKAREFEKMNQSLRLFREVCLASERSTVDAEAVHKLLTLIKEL
UniProt P52272: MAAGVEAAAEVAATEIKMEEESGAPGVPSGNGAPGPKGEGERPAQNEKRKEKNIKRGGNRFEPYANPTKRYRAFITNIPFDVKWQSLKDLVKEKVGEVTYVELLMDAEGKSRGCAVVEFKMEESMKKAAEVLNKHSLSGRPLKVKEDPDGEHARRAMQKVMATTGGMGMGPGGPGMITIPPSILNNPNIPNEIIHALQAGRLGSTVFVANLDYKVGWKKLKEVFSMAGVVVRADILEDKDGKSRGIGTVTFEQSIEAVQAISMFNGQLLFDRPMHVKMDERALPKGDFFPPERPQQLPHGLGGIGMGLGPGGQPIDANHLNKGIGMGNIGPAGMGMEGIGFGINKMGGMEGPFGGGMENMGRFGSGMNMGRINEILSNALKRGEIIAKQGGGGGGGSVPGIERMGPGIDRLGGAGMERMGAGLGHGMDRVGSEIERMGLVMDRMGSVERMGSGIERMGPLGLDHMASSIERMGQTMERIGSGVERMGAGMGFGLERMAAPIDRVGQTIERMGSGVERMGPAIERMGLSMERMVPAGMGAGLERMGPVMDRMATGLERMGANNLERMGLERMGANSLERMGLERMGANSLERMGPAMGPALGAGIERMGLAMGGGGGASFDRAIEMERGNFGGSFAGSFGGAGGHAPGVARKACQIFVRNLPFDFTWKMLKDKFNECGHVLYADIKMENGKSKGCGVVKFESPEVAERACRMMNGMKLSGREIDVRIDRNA
UniProt P61224: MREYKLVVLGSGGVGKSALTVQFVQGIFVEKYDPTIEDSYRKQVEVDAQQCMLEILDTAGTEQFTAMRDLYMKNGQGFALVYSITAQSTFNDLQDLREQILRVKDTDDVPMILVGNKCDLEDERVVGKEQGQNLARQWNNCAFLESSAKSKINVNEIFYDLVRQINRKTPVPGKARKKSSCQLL
UniProt P57678: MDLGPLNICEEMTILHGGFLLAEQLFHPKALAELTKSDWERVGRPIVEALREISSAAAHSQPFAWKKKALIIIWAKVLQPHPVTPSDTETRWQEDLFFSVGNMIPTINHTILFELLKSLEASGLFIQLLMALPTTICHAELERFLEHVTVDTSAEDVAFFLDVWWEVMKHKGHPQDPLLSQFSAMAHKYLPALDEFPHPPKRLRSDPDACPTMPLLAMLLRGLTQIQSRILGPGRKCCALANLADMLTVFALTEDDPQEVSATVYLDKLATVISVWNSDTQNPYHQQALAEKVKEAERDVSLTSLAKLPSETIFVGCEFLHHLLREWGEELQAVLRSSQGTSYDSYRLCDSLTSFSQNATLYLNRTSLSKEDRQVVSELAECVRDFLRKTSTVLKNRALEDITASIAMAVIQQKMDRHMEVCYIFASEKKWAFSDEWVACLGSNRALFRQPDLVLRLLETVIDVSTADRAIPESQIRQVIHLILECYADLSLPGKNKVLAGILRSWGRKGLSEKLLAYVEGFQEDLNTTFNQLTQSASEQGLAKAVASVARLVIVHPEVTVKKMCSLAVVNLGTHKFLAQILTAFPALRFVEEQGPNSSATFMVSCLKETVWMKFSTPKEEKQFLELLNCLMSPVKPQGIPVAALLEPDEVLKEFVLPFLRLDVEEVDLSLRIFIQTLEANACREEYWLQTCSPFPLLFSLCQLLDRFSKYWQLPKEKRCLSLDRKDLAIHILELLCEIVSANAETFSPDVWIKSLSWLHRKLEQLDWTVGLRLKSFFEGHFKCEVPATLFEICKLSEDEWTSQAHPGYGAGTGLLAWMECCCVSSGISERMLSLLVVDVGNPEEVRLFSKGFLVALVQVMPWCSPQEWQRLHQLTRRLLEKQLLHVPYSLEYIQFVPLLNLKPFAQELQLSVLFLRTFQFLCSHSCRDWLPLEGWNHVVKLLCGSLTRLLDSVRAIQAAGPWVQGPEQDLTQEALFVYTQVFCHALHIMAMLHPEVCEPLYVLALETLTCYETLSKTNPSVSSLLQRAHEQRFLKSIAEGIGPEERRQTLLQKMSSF
UniProt P53611: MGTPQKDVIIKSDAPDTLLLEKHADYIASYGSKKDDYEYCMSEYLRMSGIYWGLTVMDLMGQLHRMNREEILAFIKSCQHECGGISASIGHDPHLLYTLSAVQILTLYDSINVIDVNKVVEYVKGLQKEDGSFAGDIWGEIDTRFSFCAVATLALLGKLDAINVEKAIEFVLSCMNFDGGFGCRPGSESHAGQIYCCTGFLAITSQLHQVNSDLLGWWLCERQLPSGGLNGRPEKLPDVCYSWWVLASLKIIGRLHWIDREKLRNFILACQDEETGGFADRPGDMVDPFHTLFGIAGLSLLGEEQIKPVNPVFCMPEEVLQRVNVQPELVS
UniProt P53384: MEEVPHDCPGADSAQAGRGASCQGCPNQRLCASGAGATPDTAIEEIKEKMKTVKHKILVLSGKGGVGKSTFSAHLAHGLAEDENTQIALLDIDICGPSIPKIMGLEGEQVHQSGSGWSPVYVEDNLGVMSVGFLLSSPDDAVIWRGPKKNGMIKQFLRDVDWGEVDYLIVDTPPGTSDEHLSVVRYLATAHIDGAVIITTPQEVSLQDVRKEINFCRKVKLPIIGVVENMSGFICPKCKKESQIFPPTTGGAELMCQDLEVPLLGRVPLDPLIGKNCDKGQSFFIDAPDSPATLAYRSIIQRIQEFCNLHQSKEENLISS
UniProt P53701: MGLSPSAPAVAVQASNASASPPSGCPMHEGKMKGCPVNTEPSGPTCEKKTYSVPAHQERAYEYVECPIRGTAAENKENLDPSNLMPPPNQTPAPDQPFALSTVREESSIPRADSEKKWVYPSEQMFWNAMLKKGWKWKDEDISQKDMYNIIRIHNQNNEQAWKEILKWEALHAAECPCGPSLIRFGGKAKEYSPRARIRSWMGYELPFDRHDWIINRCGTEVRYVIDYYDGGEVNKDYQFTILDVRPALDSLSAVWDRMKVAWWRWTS
UniProt P61163, whole entry, looked up: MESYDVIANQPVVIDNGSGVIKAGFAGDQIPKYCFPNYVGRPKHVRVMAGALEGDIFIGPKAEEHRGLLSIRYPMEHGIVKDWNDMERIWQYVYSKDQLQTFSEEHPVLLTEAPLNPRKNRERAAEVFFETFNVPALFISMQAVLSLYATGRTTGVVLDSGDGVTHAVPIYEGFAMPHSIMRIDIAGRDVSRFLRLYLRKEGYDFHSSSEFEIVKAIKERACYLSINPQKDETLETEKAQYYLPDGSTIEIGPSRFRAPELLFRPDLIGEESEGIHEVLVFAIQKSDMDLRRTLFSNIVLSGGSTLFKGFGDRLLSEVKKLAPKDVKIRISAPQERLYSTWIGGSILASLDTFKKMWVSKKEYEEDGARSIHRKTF
UniProt P54920: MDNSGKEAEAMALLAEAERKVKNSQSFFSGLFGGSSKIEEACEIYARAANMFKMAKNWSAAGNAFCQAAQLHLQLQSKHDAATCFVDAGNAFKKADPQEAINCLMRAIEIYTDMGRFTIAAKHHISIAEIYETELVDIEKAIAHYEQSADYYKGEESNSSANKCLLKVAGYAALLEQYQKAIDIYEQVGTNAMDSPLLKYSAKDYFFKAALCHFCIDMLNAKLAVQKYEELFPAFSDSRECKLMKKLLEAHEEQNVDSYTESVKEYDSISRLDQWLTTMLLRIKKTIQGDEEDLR
UniProt P55036: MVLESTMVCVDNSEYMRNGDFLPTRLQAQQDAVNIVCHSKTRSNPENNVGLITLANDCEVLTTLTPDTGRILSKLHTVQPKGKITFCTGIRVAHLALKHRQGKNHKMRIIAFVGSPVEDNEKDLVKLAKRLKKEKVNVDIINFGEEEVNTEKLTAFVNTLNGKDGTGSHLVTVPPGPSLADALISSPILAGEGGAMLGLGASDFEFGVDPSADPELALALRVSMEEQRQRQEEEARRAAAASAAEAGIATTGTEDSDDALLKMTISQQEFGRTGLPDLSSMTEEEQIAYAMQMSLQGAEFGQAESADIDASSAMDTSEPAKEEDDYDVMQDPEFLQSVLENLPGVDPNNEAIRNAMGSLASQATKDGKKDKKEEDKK
UniProt P60983, whole entry: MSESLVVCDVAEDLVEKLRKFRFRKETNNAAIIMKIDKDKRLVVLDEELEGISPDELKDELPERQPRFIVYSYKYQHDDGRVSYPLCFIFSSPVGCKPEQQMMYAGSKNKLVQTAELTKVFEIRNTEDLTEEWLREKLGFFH
UniProt P51970, whole entry: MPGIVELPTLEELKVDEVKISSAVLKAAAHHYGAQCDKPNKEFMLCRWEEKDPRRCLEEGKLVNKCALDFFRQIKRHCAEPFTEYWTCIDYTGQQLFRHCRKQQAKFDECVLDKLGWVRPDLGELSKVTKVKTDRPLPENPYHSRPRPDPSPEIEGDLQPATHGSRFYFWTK
UniProt P55786: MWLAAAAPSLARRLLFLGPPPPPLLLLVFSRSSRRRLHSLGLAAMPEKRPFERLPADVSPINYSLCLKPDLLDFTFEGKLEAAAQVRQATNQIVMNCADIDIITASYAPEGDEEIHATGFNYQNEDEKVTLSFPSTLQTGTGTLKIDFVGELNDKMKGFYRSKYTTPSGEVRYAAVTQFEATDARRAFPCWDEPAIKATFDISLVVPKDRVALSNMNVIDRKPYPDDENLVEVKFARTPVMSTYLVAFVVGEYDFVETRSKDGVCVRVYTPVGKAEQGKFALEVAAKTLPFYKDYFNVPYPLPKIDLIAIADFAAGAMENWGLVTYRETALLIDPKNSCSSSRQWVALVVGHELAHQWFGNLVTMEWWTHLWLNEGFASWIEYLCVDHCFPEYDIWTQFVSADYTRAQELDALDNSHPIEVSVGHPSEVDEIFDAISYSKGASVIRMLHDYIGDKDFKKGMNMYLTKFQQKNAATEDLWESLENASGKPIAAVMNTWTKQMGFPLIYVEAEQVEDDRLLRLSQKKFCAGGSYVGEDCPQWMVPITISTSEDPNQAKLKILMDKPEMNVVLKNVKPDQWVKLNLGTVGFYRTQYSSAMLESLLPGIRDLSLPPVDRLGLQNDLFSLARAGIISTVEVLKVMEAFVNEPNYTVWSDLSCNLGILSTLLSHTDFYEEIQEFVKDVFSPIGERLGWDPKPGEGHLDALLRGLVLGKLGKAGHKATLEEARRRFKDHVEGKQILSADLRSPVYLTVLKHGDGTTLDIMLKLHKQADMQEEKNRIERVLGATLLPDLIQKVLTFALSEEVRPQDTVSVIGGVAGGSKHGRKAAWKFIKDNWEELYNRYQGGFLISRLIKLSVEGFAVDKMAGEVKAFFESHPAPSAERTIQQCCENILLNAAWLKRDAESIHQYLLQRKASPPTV

log2 ratio of iodoacetamide-alkyne labeling, inactive:
MSH6 C1165 (UniProt P52701) 0.0384
HNRNPM C694 (UniProt P52272) 0.172
UniProt P61224_C141 -0.000216
GEMIN4 C9 (UniProt P57678) -0.242
RABGGTB C40 (UniProt P53611) 0.198
EEFSEC C93 (UniProt P57772) 0.205
RPS3A C111 (UniProt P61247) 0.414
HNRNPA3 C196 (UniProt P51991) 0.131
NUBP1 C22 (UniProt P53384) 0.38
UniProt P51812_C579 -0.0435
UniProt P60866_C36 0.102
UniProt P61077_C111 0.143
HCCS C46 (UniProt P53701) 0.335
ADAR C1224 (UniProt P55265) 0.158
ALDH5A1 C340 (UniProt P51649) 0.147
UniProt P60709_C217 0.00818
MSH6 C88 (UniProt P52701) 0.0172
UniProt P55196_C1764 0.569
KIF11 C911 (UniProt P52732) -0.172
UniProt P60763_C157 0.144
UniProt P61163_C222 0.078
NAPA C103 (UniProt P54920) 0.0158
PSMD4 C37 (UniProt P55036) 0.0898
UniProt P52564_C196 0.244
MSH6 C1158 (UniProt P52701) 0.0384
PPP5C C452 (UniProt P53041) 0.128
UniProt P61081_C47 0.134
CASP7 C7 (UniProt P55210) 0.217
RARS C32 (UniProt P54136) 0.313
UniProt P62241_C71 0.304
GMFB C8 (UniProt P60983) -0.0547
UniProt P62241_C72 0.0344
HNRNPM C114 (UniProt P52272) -0.00706
NDUFA8 C110 (UniProt P51970) 0.268
PMS2 C798 (UniProt P54278) 0.119
NPEPPS C887 (UniProt P55786) 0.196
LAMB2 C47 (UniProt P55268) 0.216

2 consecutive entries out of the list so far, for reference:
log2 ratio of iodoacetamide-alkyne labeling, inactive:
RABGGTB C40 (UniProt P53611) 0.198
EEFSEC C93 (UniProt P57772) 0.205

Reference: the supplement of paper PMC11006884
